According to paper PMC2978106, “The Arabidopsis ABA-Activated Kinase OST1 Phosphorylates the bZIP Transcription Factor ABF3 and Creates a 14-3-3 Binding Site Involved in Its Turnover” (PLoS ONE, 2010):
No constants are given. Whether binding was seen depends on the method and setting. For some assays here: Binding seen in cells or lysates may run through a third protein. Some entries that bind do so weakly or less than the wild type. Where a sequence is shown, tags or fusion partners need not be part of it.

T1: OPEN STOMATA 1 (OST1), fused to the N- or C-terminal fragment of YFP for BiFC (Arabidopsis thaliana) (UniProt Q940H6)
T1 sequence: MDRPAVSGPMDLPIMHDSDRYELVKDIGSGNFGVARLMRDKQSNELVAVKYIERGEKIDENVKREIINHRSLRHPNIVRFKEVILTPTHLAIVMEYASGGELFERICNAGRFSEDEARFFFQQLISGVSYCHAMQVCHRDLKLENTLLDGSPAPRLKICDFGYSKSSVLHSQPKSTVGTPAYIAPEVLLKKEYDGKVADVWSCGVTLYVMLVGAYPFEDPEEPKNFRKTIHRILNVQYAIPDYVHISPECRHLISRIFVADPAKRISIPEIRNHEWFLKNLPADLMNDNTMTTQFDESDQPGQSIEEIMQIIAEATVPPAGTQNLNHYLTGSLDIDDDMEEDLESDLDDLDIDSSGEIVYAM

T2: Arabidopsis 14-3-3 protein GF14phi fused to GST (Arabidopsis) (UniProt P46077)
T2 sequence: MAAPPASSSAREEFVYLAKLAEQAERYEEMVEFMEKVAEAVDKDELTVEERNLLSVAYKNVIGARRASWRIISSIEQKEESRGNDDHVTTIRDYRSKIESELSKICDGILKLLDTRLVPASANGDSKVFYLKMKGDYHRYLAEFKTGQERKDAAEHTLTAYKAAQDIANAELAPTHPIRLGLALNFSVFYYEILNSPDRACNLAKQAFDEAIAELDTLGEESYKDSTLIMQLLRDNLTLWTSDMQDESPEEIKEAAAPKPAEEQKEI


Experiments:
[1] = biological target: T1, OPEN STOMATA 1 (OST1), fused to the N- or C-terminal fragment of YFP for BiFC (Arabidopsis thaliana); test: split reporter; BiFC: OST1 and ABF3 fused to YFP^N and YFP^C, transiently expressed in Nicotiana benthamiana leaves; confocal microscopy 3 days after infiltration; YFP^N-AKINβ as negative control
[2] = biological target: T2, Arabidopsis 14-3-3 protein GF14phi fused to GST (Arabidopsis); test: pull-down; GST-GF14phi (0.4 nmole) on glutathione beads; 15 µM peptide phosphorylated by OST1 with ATP^γ32; 30 min at 25°C; 20 mM Tris-HCl pH 7.5, 150 mM NaCl, 1 mM CaCl2, 1 mM DTT, 0.05% Tween20; bound peptide counted by Cerenkov counting; both purified

Row | binding [1] | binding [2] | Binder
1 | binds |  | ABA-responsive-element Binding Factor 3 (ABF3), fused to the N- or C-terminal fragment of YFP for BiFC (protein, UniProt Q9M7Q3 1-454) MGSRLNFKSFVDGVSEQQPTVGTSLPLTRQNSVFSLTFDEFQNSWGGGIGKDFGSMNMDELLKNIWTAEESHSMMGNNTSYTNISNGNSGNTVINGGGNNIGGLAVGVGGESGGFFTGGSLQRQGSLTLPRTISQKRVDDVWKELMKEDDIGNGVVNGGTSGIPQRQQTLGEMTLEEFLVRAGVVREEPQPVESVTNFNGGFYGFGSNGGLGTASNGFVANQPQDLSGNGVAVRQDLLTAQTQPLQMQQPQMVQQPQMVQQPQQLIQTQERPFPKQTTIAFSNTVDVVNRSQPATQCQEVKPSILGIHNHPMNNNLLQAVDFKTGVTVAAVSPGSQMSPDLTPKSALDASLSPVPYMFGRVRKTGAVLEKVIERRQKRMIKNRESAARSRARKQAYTMELEAEIAQLKELNEELQKKQVEIMEKQKNQLLEPLRQPWGMGCKRQCLRRTLTGPW
2 |  | no binding (tested: 15 µM peptide) | MALQRQGSLTLPKKK (phosphoserine at S126 (phosphorylated in vitro by OST1, 32P-labelled)) [ABF3S126 peptide phosphorylated by OST1]
